# Reference: US5145837A, “Treatment of arthritis” (Sandoz Ltd., priority 1988, dated 1992)
# Part of at least one peptide drawing is inferred or uncertain, most often the ends.
# Test system: prostaglandin E2 production in mouse calvariae
# Assay: Inhibitory effect on prostaglandin E2 production stimulated by PTH in organ cultures of mouse calvariae
# Format: cell-based
# Method: Organ cultures of mouse calvariae are first prepared according to the principles of U. L. Ivey, D. R. Wright, A. H. Tashjian, J. Clin. Invest. 58:1327 (1976) as follows:
# Frontal and parietal bones are dissected from neonatal (5 to 6-day-old) mice (strain CD-1), split along the sagittal suture, and cultured in 2 ml of BGJ-medium containing 1 mg/ml bovine serum albumin, penicillin and streptomycin in 35 mm plastic tissue culture wells. […]
# The cells are cultured for another 48 hours. During the entire culture period, the multi-well dishes are shaken on a rocker platform (15 oscillations/min) in a humidified atmosphere of 5% CO2 in air at 37° C. The calvaria-conditioned medium is harvested and placed at 4° C.
# An aliquot of the medium is then assayed for prostaglandin E2 using a standard radioimmunossay. Prostaglandin E2 levels are reduced.
smiles,measurement,setting,value
C[C@@H](O)[C@@H]1NC(=O)[C@H](CCCCN)NC(=O)[C@@H](Cc2c[nH]c3ccccc23)NC(=O)[C@H](Cc2ccccc2)NC(=O)[C@@H](NC(=O)[C@H](N)Cc2ccccc2)CSSC[C@@H](C(=O)N[C@H](CO)[C@@H](C)O)NC1=O [Compound IVa],PGE2 synthesis,Compound IVa 10^-7 M alone,85 pg/mL
same,PGE2 synthesis,PTH 10^-9 M + Compound IVa 10^-7 M,40 pg/mL
same,PGE2 synthesis,PTH 10^-10 M with Compound IVa 10^-7 M,60 pg/mL
same,inhibition of PGE2 synthesis,compound at 10^-7 M,total inhibition
